Assay in all cases: affinity purification with mass spectrometry
For experiment [1], the target named is 3xFLAG-PepDS317A-6xHis (M. tuberculosis PepD S317A, expressed in M. tuberculosis ΔpepD from pTZ1066) (Mycobacterium tuberculosis) (UniProt O53896).
Experiment [2] has as its target 3xFLAG-PepDS317A-6xHis (M. tuberculosis PepD S317A, expressed in M. smegmatis ΔpepD from pTZ1066) (Mycobacterium tuberculosis) (UniProt O53896).
The target in experiment [3] is 3xFLAG-PepDS317A-6xHis (M. tuberculosis PepD S317A, expressed in M. tuberculosis ΔpepD from pTZ1066) (Mycobacterium tuberculosis) (UniProt O53896). The source holds these as a separate data set.

Where two headings read alike, the source gives them in different places. No constants are given. Whether binding was seen depends on the method and setting. Binding seen in cells or lysates may run through a third protein. A yes stands for co-enrichment or nearness to the bait. Other partners may have been found.

With “Chaperone protein DnaK (Rv0350) (from UniProt P9WMJ9 1-625)”, the binding result in experiment [1] is listed as “binds”.
As to “ATP synthase subunit beta AtpD (Rv1310) (from UniProt P9WPU5 1-486)”, the binding entry in experiment [1] is “binds”.

B1: MSMEG_2695 (35-kDa antigen of M. smegmatis) (protein, UniProt A0QVU2 1-279)
chain: MANPFVKAWKYLMALFSSKVDEYADPKVQIQQAIEDAQRQHQALTQQAAQVIGNQRQLEMRLNRQLADIEKLQVNVRQALTLADQATAAGDVAKATEYNNAAEAFAAQLVTAEQSVEDLKGLHDQALQAAGQAKKAVEQNAMMLQQKIAERTKLLSQLEQAKMQEQVSSSLRSMSELAAPGTTPSLDEVRQKIERRYANAMGEAELAQNSVQGRMMEIQQASVQMAGHSRLEQIRASMRGEALPSGGATSTPATPSTQGTPSDPATNQTPPNTENPLGQ
With B1, the binding result in experiment [2] is on record as “binds”.

B2: Serine/threonine protein kinase PknH (Rv1266c) (protein, UniProt P9WI71 1-626)
chain: MSDAQDSRVGSMFGPYHLKRLLGRGGMGEVYEAEHTVKEWTVAVKLMTAEFSKDPVFRERMKREARIAGRLQEPHVVPIHDYGEVDGQMFLEMRLVEGTDLDSVLKRFGPLTPPRAVAIITQIASALDAAHADGVMHRDVKPQNILITRDDFAYLVDFGIASATTDEKLTQLGTAVGTWKYMAPERFSNDEVTYRADIYALACVLHECLTGAPPYRADSAGTLVSSHLMGPIPQPSAIRPGIPKAFDAVVARGMAKKPEDRYASAGDLALAAHEALSDPDQDHAADILRRSQESTLPAPPKPVPPPTMPATAMAPRQPPAPPVTPPGVQPAPKPSYTPPAQPGPAGQRPGPTGQPSWAPNSGPMPASGPTPTPQYYQGGGWGAPPSGGPSPWAQTPRKTNPWPLVAGAAAVVLVLVLGAIGIWIAIRPKPVQPPQPVAEERLSALLLNSSEVNAVMGSSSMQPGKPITSMDSSPVTVSLPDCQGALYTSQDPVYAGTGYTAINGLISSEPGDNYEHWVNQAVVAFPTADKARAFVQTSADKWKNCAGKTVTVTNKAKTYRWTFADVKGSPPTITVIDTQEGAEGWECQRAMSVANNVVVDVNACGYRITNQAGQIAAKIVDKVNKE
With B2, in experiment [3], the binding result was “binds”.

For the origin of these results see article PMC3062566.
